PubChem BioAssay AID652243 – Drosophila RNAi Screening Center, 2013
The screen tested about 24,000 reagents; below is a random part of those with a known target gene and a result. Over the whole deposit, 246 (1%) were called active. 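Plates not normalised; calls are printed but the firefly/Renilla ratio behind them is not deposited; fold cut for lowering reported inconsistently.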 The raw values are shown without normalisation. Entries without a mark were called inactive. The record does not give: the amount of reagent.

Assay: 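Knock-downs that decrease or increase androgen receptor reporter signal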 (primary screen)
System: Drosophila S2R+ cells
Reagent: long dsRNA against Drosophila genes
Timing: 72 h (48 h, then 24 h hormone)
Conditions: synthetic androgen R1881 at 10 nM for 24 h
Read-out: 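Per-well raw luminescence of the androgen-driven firefly reporter and of the Renilla control, two replicates each, without normalisation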
Reading the numbers: firefly reporter light: higher = more light from androgen-responsive reporter; Renilla control light: higher = more constitutive control signal (cell number, transfection)
Rule for the call: 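Across duplicate plates, a knock-down whose log firefly/Renilla ratio shifted a set fold down or up from the GFP/LacZ control mean was a hit; the downward cut appears as both 1.5 and 3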
Meaning of the calls: active = hit: reporter lowered or raised; inactive = no hit

| Gene | DRSC id | firefly reporter light, replicate 1 | firefly reporter light, replicate 2 | Renilla control light, replicate 1 | Renilla control light, replicate 2 |
| --- | --- | --- | --- | --- | --- |
| CG32225 | DRSC09657 | 1.38e5 | 1.65e5 | 3.46e5 | 3.53e5 |
| CG32225 | DRSC26362 | 2.61e5 | 3.92e5 | 3.04e5 | 6.59e5 |
| GstD11 | DRSC15251 | 1.33e5 | 1.51e5 | 2.92e6 | 2.46e6 |
| GstD11 | DRSC26490 | 2.01e5 | 1.05e5 | 3.02e5 | 2.97e5 |
| CG5805 | DRSC15878 | 1.41e5 | 71462 | 7.50e5 | 5.42e5 |
| CG5805 | DRSC24253 | 5.08e5 | 8.59e5 | 5.67e5 | 5.95e5 |
| CG5805 | DRSC39075 | 5.80e5 | 3.39e5 | 1.59e6 | 1.29e6 |
| CG7768 | DRSC10914 | 7.52e5 | 6.14e5 | 1.45e6 | 1.62e6 |
| BG642163 | DRSC00342 | 1.88e5 | 1.37e5 | 8.74e5 | 1.14e6 |
| BG642163 | DRSC00343 | 1.35e5 | 1.23e5 | 1.23e6 | 9.32e5 |
| Poxm | DRSC16793 | 4.13e5 | 3.74e5 | 2.66e6 | 2.35e6 |
| Poxm | DRSC22839 | 5.16e5 | 1.07e6 | 9.57e5 | 1.79e6 |
| pdgy | DRSC19064 | 5.58e5 | 7.72e5 | 1.66e6 | 2.07e6 |
| pdgy | DRSC19341 | 1.06e5 | 1.15e5 | 7.00e5 | 8.52e5 |
| Or9a | DRSC18692 | 4.63e5 | 3.60e5 | 3.43e6 | 3.61e6 |
| Or9a | DRSC28277 | 3.40e5 | 5.42e5 | 7.96e5 | 1.15e6 |
| Sf3a2 | DRSC09801 | 1.36e6 | 8.83e5 | 1.55e6 | 1.70e6 |
| ana1 | DRSC16079 | 1.44e5 | 97707 | 1.10e6 | 1.24e6 |
| ana1 | DRSC21825 | 4.16e5 | 3.66e5 | 2.89e6 | 4.52e6 |
| ana1 | DRSC30086 | 1.06e6 | 1.09e6 | 1.07e6 | 1.20e6 |
| CG17266 | DRSC04979 | 3.82e5 | 4.19e5 | 2.52e6 | 2.55e6 |
| CG17266 | DRSC22368 | 8.57e5 | 8.95e5 | 1.75e6 | 1.78e6 |
| CG17266 | DRSC24207 | 4.32e5 | 4.27e5 | 7.60e5 | 7.34e5 |
| CG13375 | DRSC18621 | 2.52e5 | 2.21e5 | 2.41e6 | 2.64e6 |

An excerpt from above, showing only “firefly reporter light, replicate 2”:
CG5805 [DRSC15878]	71462
CG5805 [DRSC24253]	8.59e5
